No constants are given. Whether binding was seen depends on the method and setting. Binding seen in cells or lysates may run through a third protein. These calls come from enrichment with a bait or labelling near it, and not all partners need be listed.
B1: metal ion transporter ZIP6 (protein, UniProt Q8C145 21-765)
chain: LHELQSTAAFSQTTEKINSNWEPGVNVDLAVTMQRHHLQQLFYRYGENDSLSVEGFRKLLQNIGIDKIKRVHIHHDHEHHADHEHHSDHEHHSDHEHHSDHEHHSDHEHHSDHEHHSHRSHTVAGKNNRKAFCPDLDSDNSGKNPRTSLGKGSRPAEHMNGRRNIKESASSSEVTSAVYNAVSEGTRFVETIETPKPGRRTKDVNPSTPPSITEKSRVGRLSRLARKKSNESVSEPRKSFMYSRNTNDNIQECFNTTKLLTSHGMSIQALLNATEFNYLCPAIINQIDARACLIHTASEKKAEIPPKTYSLQIAWLGGFIAISIISFLSLLGVILVPLMNRVFFKFLLSFLVALAVGTLSGDALLHLLPHSHASHQHSHSHEEPAMEMKRGPLFSHLSAQNIEESSYFDSTWKGLTALGGLYFMFLVEHVLTLIKQFKDKKKKNQKKPENDEDVESKKQLSKYDSQLSSNEEKVDPGERPESYLRADSQEPSPFDSQQPTMLEEEEVMIAHAHPQEVYNEYVPRGCKNKCHSHFHDTLGQSDDLIHHHHDYHHILHHHHHQNHHPHSHSQRYSREELKDAGIATLAWMVIMGDGLHNFSDGLAIGAAFTEGLSSGLSTSVAVFCHELPHELGDFAVLLKAGMTVKQAVLYNALSAMLAYLGMATGIFIGHYAENVSMWIFALTAGLFMYVALVDMVPEMLHNDASDHGCSRWGYFFLQNAGILLGFGIMLLISIFEHKIVFRINF
B2: ectonucleotide pyrophosphatase/phosphodiesterase 3 (protein, UniProt Q6DYE8 1-874)
chain: MDSRLALATEEPIKKDSLKKYKILCVVLLALLVIVSLGLGLGLGLRKPEEQGSCRKKCFDSSHRGLEGCRCDSGCTGRGDCCWDFEDTCVKSTQIWTCNLFRCGENRLETALCSCADDCLQRKDCCADYKTVCQGESPWVTEACASSQEPQCPPGFDLPPVILFSMDGFRAEYLQTWSTLLPNINKLKTCGIHSKYMRAMYPTKTFPNHYTIVTGLYPESHGIIDNNMYDVHLNKNFSLSSVEKSNPAWWSGQPIWLTAMYQGLKAACYYWPGSDVAVNGSFPTIYRNYSNSVPYERRITTLLQWLDLPKADRPSFYTIYVEEPDSAGHSSGPVSAGVIKALQSVDNAFGMLMEGLKQRNLHNCVNIIVLADHGMDQTSCDRVEYMTDYFPKINFYMYQGPAPRIRTRNIPQDFFTFNSEEIVRNLSCRKPDQHFKPYLTPDLPKRLHYAKNVRIDKAHLMVDRQWLAFRSKGSSNCGGGTHGYNNEFKSMEAIFLAHGPSFIEKTVIEPFENIEVYNLLCDLLHIEPAPNNGTHGSLNHLLKTPFYKPSHAGELSTPADCGFTTPLPTDPLDCSCPALQNTPGLEEQANQRLNLSEGEVAATVKANLPFGRPRVMQKNGDHCLLYHRDYISGYGKAMKMPMWSSYTVLKPGDTSSLPPTVPDCLRADVRVAPSESQKCSFYLADKNITHGFLYPAIKGTNESRYDALITSNLVPMYKEFKKMWDYFHEVLLIKYAIERNGLNVVSGPIFDYNYDGHFDAPDEITQYVAGTDVPIPTHYFVVLTSCKDQTHTPDSCPGWLDVLPFIVPHRPTNIESCSENKTEDLWVEERFQAHAARVRDVELLTGLDFYQEKAQPVSQILQLKTYLPTFETII
B3: metal ion transporter ZIP10 (protein, UniProt Q6P5F6 26-833)
chain: HEDHDHGPEELHRHHRGMTESESSKFSVQDAENEKKYYIEKLFDRYGENGRLSFFGLEKLLTNLGLGEIKVVEINHEDLGHDHVSHLDILAVQEGKHFHSHTHQHFHNHLNAENHTTTSVTSKRNHKCDPEKEAAELPIKADDKHLHDRNHRFHHRHRLHHHLDHNTTRHVHNDSVAHSEHGEPGHSPSPETNKTQEQSEVKSVKVRRKEKGKRKKENSEVNTPGFLPNHDHSEQYEHNRVHKLDRVHSPGHPHAHLPEHSGHELGHGHQELDPDNEGELRHTRKREAPHVRKSAIYSTPSHKDQSEDDRQHECLNVTQLLKHFGLGPNSPISPDLFTYLCPALLYQIDSRLCIEHFDKLLVEDLNKDKTLVPEDKTNIGASAWICGIISITVISLLSLLGVILVPIINQGCFKFLLTFLVALAVGTMSGDALLHLLPHSQGGHDHSHQHTHGHGHSHGHESKEFLEEYDAVLKGLVALGGIYLLFIIEHCIRMFKHYKQQRGKQKWFMKQSTEESTIGRKLSDHKLNSTPDADWLQLKPLAGTDDSVVSEDRLNETELTDLEAQQESPPKNYLGVEEEKIMDHSHSDGLHTIHEHEVHVTSHNHHDEDKAVLRKHSHQWHHRHAHHSHGPCHSGSDLKETGIANIAWMVIMGDGIHNFSDGLAIGAAFSAGLTGGISTSIAVFCHELPHELGDFAVLLKAGMTVKQAIVYNLLSAMMAYIGMLIGTAVGQYANNITLWIFAITAGMFLYVALVDMLPEMLHGDGDHEEHGFCPVGQFILQNLGLLFGFAIMLVIALYEDKIVFDIQF

By UniProt entry, the sequences of proteins in these tests, tags left out. Residues count along the entry.
UniProt Q9QUG3, residues 26-155: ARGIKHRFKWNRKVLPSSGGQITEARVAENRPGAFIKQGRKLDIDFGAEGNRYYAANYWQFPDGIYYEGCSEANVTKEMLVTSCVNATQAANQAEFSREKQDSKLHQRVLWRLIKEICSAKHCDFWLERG

Biological target: FLAG-Dpl (mouse) (UniProt Q9QUG3)
Test: affinity purification with mass spectrom

Binder	binding
B1	binds
B2	binds
B3	binds

Reference: PMC2749441
